Experimental findings from PubChem BioAssay AID248 (DTP/NCI, 2004) are described below.

The list shows only some results of the screen, not a fair sample: it is rich in T/C values a quarter to a half above the control, in often repeated tests (any T/C) and in doses without a T/C. Further doses and runs are listed elsewhere. T/C: endpoint of the treated group in % of that of the vehicle group. Some entries give survivors of the animals treated and no T/C: the source files T/C as zero there, which appears to mark a toxic dose or a test without result, not a measured value. Some doses without a T/C left all or most animals alive at the check, yet need not have been tolerated: the source hardly ever lists a survival T/C far under the control, and the zero likely stands for such cases as well. Survivors were counted at the toxicity check, usually on the fifth day, unless a day is given; later deaths do not show. Schedules are NCI's codes, taken here to give the interval after Q, in days (D) or hours (H), and the number of doses after X. Some doses were run more than once; their values stand side by side, smallest first. Signs of the kind (2×) say how often a value occurs here. Some schedule codes hold Z or #, which are not explained here. Where survival is the endpoint, the PubChem record calls one and a half times the control and up active, and a quarter to a half above the control has no call in these data; cut-offs in other NCI protocols can differ. Some T/C values are followed by the survivors on the day toxicity was checked, most often the fifth; without a count, all were alive then.

The test concerns L1210 leukemia ip in BDF1 mice, survival T/C. In words: NCI In Vivo Anticancer Drug Screen. Data for tumor model L1210 Leukemia (intraperitoneal) in B6D2F1 (BDF1) mice. The note with it: T/C endpoint: mean survival time, higher T/C = longer survival.
[1] abbreviates: dose: 200.0 mg/kg/injection, schedule: Q01DX001 (ip), vehicle: saline.
Setting [2] is: dose: 400.0 mg/kg/injection, schedule: Q01DX001 (ip), vehicle: saline.
Where [3] appears, read: dose: 200.0 mg/kg/injection, schedule: Q04DX003 (ip), vehicle: saline.
The mark [4] stands for this setting: dose: 400.0 mg/kg/injection, schedule: Q04DX003 (ip), vehicle: saline.
Where [5] appears, read: dose: 300.0 mg/kg/injection, schedule: Q01DX001 (ip), vehicle: saline.
The mark [6] stands for this setting: dose: 400.0 mg/kg/injection, schedule: Q01DX009 (ip), vehicle: Klucel (hydroxypropylcellulose) (HPC).
[7] abbreviates: dose: 400.0 mg/kg/injection, schedule: Q04DX003 (ip), vehicle: Klucel (hydroxypropylcellulose) (HPC).

For `O=Nc1c(-c2c[nH]c3ccccc23)[nH]c2ccccc12`, the survivor count is listed as 0 of 4 under setting [1] and 0 of 4 under setting [2].

On to `NC(CSS(=O)(=O)O)=NCc1cccnc1`, for which the survivor count (dose: 400.0 mg/kg/injection, schedule: Q04DX002 (ip), vehicle: Klucel (hydroxypropylcellulose) (HPC)) is 0 of 3.

With `Cc1ccc(S(=O)(=O)N(CCC(=N)N)C(C)C)cc1`, the survivor count is recorded as 0 of 6 under setting [3] and 0 of 6 under setting [4].

For `C[S+]1CCCCC1`, the survivor count by setting is: under setting [1], 1 of 4; under setting [2], 0 of 4.

In the case of `CC1(C)c2ccccc2N(CCCN)c2ccccc21`, the survivor count reads like this: under setting [1], 2 of 4; under setting [2], 0 of 4.

Take `Cc1cc(C)c(C(=O)CCN(C)C)c(C)c1`: the survivor count by setting is: (dose: 100.0 mg/kg/injection, schedule: Q01DX009 (ip), vehicle: saline) 2 of 6; under setting [3], 0 of 6; under setting [4], 0 of 6.

`CNCCN(C)Cc1ccccc1`: the survivor count is, setting by setting: under setting [3], 1 of 6; under setting [4], 0 of 6.

As for `Cc1cc(C)c2nc(N)sc2c1`, the survivor count is listed as 0 of 6 (dose: 200.0 mg/kg/injection, schedule: Q04DX003 (ip), vehicle: saline with Tween-80) and 0 of 6 (dose: 400.0 mg/kg/injection, schedule: Q04DX003 (ip), vehicle: saline with Tween-80).

`O=C1CC(c2ccc(Cl)cc2)C(=O)O1` (configuration not stated): under “dose: 400.0 mg/kg/injection, schedule: Q04DX003 (ip), vehicle: alcohol”, the survivor count is 2 of 6.

Take `CCOC(=O)NC1=NCC(C)(C)S1`: the survivor count by setting is: (dose: 150.0 mg/kg/injection, schedule: Q01DX001 (ip), vehicle: saline) 2 of 6; under setting [5], 0 of 6.

`COC(OC)c1[nH]c(=O)[nH]c(=O)c1F.[Hg]`: the survivor count is 1 of 6 (dose: 12.0 mg/kg/injection, schedule: Q01DX009 (ip), vehicle: saline); 2 of 6 (dose: 25.0 mg/kg/injection, schedule: Q04DX003 (ip), vehicle: saline); 0 of 6 (dose: 50.0 mg/kg/injection, schedule: Q04DX003 (ip), vehicle: saline).

For `Cc1cc(C)c(S(=O)(=O)O)c(Cc2cccc3ccccc23)c1`, the survivor count is recorded as 3 of 6 under setting [3] and 0 of 6 under setting [2].

On to `CC(C)(C)C([NH-])=O.CC(C)(C)C([NH-])=O.[Cl][Pt+2][Cl]`, for which the survivor count reads like this: (dose: 50.0 mg/kg/injection, schedule: Q01DX009 (ip), vehicle: saline) 0 of 6; (dose: 100.0 mg/kg/injection, schedule: Q04DX003 (ip), vehicle: saline) 1 of 6; under setting [3], 0 of 6; under setting [4], 0 of 6.

Turning to `CCC(=O)C1(c2cccc(O)c2)CCN(C)CC1`, the survivor count under setting [5] is 0 of 6.

Turning to `Nc1ncnc2c1c(C(=O)NO)cn2C1OC(CO)C(O)C1O` (configuration not stated), the T/C runs as follows: (dose: 6.25 mg/kg/injection, schedule: Q01DX009 (ip), vehicle: saline) 136 % of control; (dose: 12.5 mg/kg/injection, schedule: Q01DX005 (ip), vehicle: saline) 148 % of control. Besides, the survivor count is, setting by setting: (dose: 25.0 mg/kg/injection, schedule: Q01DX009 (ip), vehicle: saline) 4 of 6; (dose: 50.0 mg/kg/injection, schedule: Q01DX005 (ip), vehicle: saline) 0 of 6; (dose: 75.0 mg/kg/injection, schedule: Q01DX001 (ip), vehicle: water) 3 of 6; (dose: 100.0 mg/kg/injection, schedule: Q01DX005 (ip), vehicle: saline) 0 of 6; (dose: 150.0 mg/kg/injection, schedule: Q01DX001 (ip), vehicle: water) 0 of 6; (dose: 200.0 mg/kg/injection, schedule: Q01DX005 (ip), vehicle: saline) 0 of 6. Also, where the note is “dose: 300.0 mg/kg/injection, schedule: Q01DX001 (ip), vehicle: water”, the survivor count was 0 of 6.

In the case of `CCCCCOC(=O)C#CC(=O)OCCCCC`, the T/C (dose: 6.25 mg/kg/injection, schedule: Q01DX009 (ip), vehicle: carboxymethylcellulose (CMC)) was 89, 89 [2 of 3 alive], 101, 102 % of control. For the same molecule, the survivor count by setting is: (dose: 12.5 mg/kg/injection, schedule: Q01DX009 (ip), vehicle: carboxymethylcellulose (CMC)) 6 of 6; (dose: 25.0 mg/kg/injection, schedule: Q01DX009 (ip), vehicle: carboxymethylcellulose (CMC)) 1 of 6 and 2 of 3; (dose: 50.0 mg/kg/injection, schedule: Q01DX009 (ip), vehicle: carboxymethylcellulose (CMC)) 6 of 6; (dose: 100.0 mg/kg/injection, schedule: Q01DX009 (ip), vehicle: carboxymethylcellulose (CMC)) 3 of 6 and 2 of 3; (dose: 100.0 mg/kg/injection, schedule: Q04DX003 (ip), vehicle: carboxymethylcellulose (CMC)) 5 of 6; (dose: 200.0 mg/kg/injection, schedule: Q01DX009 (ip), vehicle: carboxymethylcellulose (CMC)) 0 of 3 and 0 of 6. Also, the survivor count is, setting by setting: (dose: 200.0 mg/kg/injection, schedule: Q04DX003 (ip), vehicle: carboxymethylcellulose (CMC)) 0 of 6; (dose: 400.0 mg/kg/injection, schedule: Q04DX002 (ip), vehicle: carboxymethylcellulose (CMC)) 0 of 3 and 2 of 6.

On to `CCN(CC)CCOc1ccccc1C(C)C`, for which the survivor count under setting [3] is reported as 1 of 6 and the survivor count under setting [4] was 0 of 6.

On to `Cc1ccc(NC(=O)Nc2ccc(Cl)c(Cl)c2)c(C)c1`, for which the survivor count under setting [6] is 6 of 6.

Turning to `Cc1ccc(C2(O)CCN(CCCC(=O)c3ccc(F)cc3)CC2)cc1`, the survivor count was 0 of 6 (dose: 100.0 mg/kg/injection, schedule: Q01DX009 (ip), vehicle: Klucel (hydroxypropylcellulose) (HPC)); 0 of 6 (dose: 200.0 mg/kg/injection, schedule: Q01DX009 (ip), vehicle: Klucel (hydroxypropylcellulose) (HPC)); 0 of 6 under setting [6].

Regarding `O=C(O)C(O)C(O)C(=O)O.O=C(O)C(O)C(O)C(=O)O.[O]=[V].[O]=[V]` (configuration not stated), the survivor count is, setting by setting: (dose: 100.0 mg/kg/injection, schedule: Q04DX003 (ip), vehicle: saline sonified) 3 of 6 and 6 of 6; (dose: 200.0 mg/kg/injection, schedule: Q04DX003 (ip), vehicle: saline sonified) 0 of 6 (3×); (dose: 400.0 mg/kg/injection, schedule: Q04DX003 (ip), vehicle: saline sonified) 0 of 6 (3×).

For the molecule `CC(=O)c1cc2cc(Cl)cc(Cl)c2oc1=O`, where the note is “dose: 400.0 mg/kg/injection, schedule: Q01DX009 (ip), vehicle: saline with Tween-80”, the survivor count is on record as 2 of 3.

For the molecule `CN=C(NC)NCc1ccccc1`, the survivor count is, setting by setting: under setting [1], 1 of 4; under setting [2], 0 of 4.

With `NC(CS)C(=O)O` (configuration not stated), the survivor count reads like this: (dose: 500.0 mg/kg/injection, schedule: Q01DX Z (ip), vehicle: other) 0 of 7; (dose: 1000.0 mg/kg/injection, schedule: Q01DX Z (ip), vehicle: other) 0 of 7.

For `CNc1ccc2cc(Br)ccc2c1`, the survivor count (dose: 100.0 mg/kg/injection, schedule: Q04DX003 (ip), vehicle: Klucel (hydroxypropylcellulose) (HPC)) was 2 of 6.

Take `CC(C)(O)C(C)(O)c1cccc(Cl)c1` (configuration not stated): the survivor count under setting [7] is 2 of 4.

Take `O=[N+]([O-])c1ccc2c(c1)-c1ccccc1C1=NCCN12`: the survivor count (dose: 200.0 mg/kg/injection, schedule: Q04DX003 (ip), vehicle: Klucel (hydroxypropylcellulose) (HPC)) was 5 of 6 and the survivor count under setting [7] is recorded as 0 of 6.

On to `C=CCOC(=O)Oc1ccccc1Cl`, for which the survivor count runs as follows: under setting [6], 0 of 6; under setting [7], 6 of 6.
